Results reported in PubChem BioAssay AID624291 (National Center for Advancing Translational Sciences (NCATS), 2012).
Among all 350,000 compounds or so, about 220 (0.063%) were called active. Inconclusive means that the source gave no clear call. Such entries were picked first, then a sample of the others. Calls follow the shape of the dose curve; as a rule, active = well fitted activation curve with a large enough effect; inconclusive = small, poorly fitted or top-dose-only effect; inactive = no such curve, though single readings can be large or run the other way. Potencies beside an inconclusive call are fits to weak or partial responses and may not hold up.

Test: qHTS for Activators of Integrin-Mediated Alleviation for Muscular Dystrophy; also: nearly all actives have a fitted effect of over 60% in size;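 as to activation: 100% = response of the positive control SU9516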
Conditions: alpha7betagal myoblasts, beta-gal FDG fluorescence, 48 h; activation: at 38.3 µM (top of the series)
Summary of the method: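 Alpha7betagal+/- myoblasts (passage 13) were plated 16-24 hr, then exposed to compounds (1:260 dilution of DMSO stock) for 48 hours at 37C. After MPER lysis, β-galactosidase reporter activity was read as FDG fluorescence (ex 480/em 540) after 30 minutes.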
Potency is read from the fitted curve at half-maximal effect.

Structure (SMILES)	Potency	activation
CN(Cc1ccccc1)C(=O)COC(=O)c1ccc2ccccc2n1	inconclusive: 5.62 µM [activator, partial curve, poor fit]	
Cc1cc(/C=N/NC(=O)c2ccc(O)cc2)c(C)n1CC(C)C	inconclusive: 28.2 µM [activator, single point]	
CCOC(=O)N1CCN(Cc2ccc3ccccc3c2)CC1	inconclusive: 5.01 µM [activator, single point]	
CCOC(=O)C(=O)NNc1ccc(F)cc1	inactive	
CCCc1cc(=O)[nH]c(SCc2ccccc2Cl)n1	inconclusive: 3.98 µM [activator, single point]	
CCOC(=O)c1c(C)c(C(=O)NCc2cccnc2)c(C)n1C	inactive	
COCCN(C(=O)c1cc(-c2ccc(F)cc2)nc2ccccc12)c1c(N)n(CC(C)C)c(=O)[nH]c1=O	inconclusive: 12.6 µM [activator, single point]	
COc1ccc(OCC(O)CN2CCc3ccccc3C2)cc1 (stereo not drawn)	inactive	
Cc1ccc(NC(=O)CSc2ncc3ccccn23)cc1	inactive	
COCc1cc(C)nc2sc(C(=O)NN)c(-n3cccc3)c12	inactive	
COc1ccc(NC(=O)NNC(=O)COc2ccc(Cl)cc2C)cc1OC	inconclusive: 11.2 µM [activator, single point]	
Oc1cccc(C=NN=C2c3ccccc3-c3ccccc32)c1	inconclusive: 28.2 µM [activator, single point]	
Cc1ccc(C2(C)CC(C)(C)N(C(=O)CSc3nnc(C)s3)c3ccccc32)cc1 (stereo not drawn)	inactive	
O=C(COc1coc(CN2CCN(c3ccccc3F)CC2)cc1=O)Nc1ccccc1	inactive	
COc1ccc(/C=C(\NC(=O)c2ccc(C)cc2)C(=O)NCCCn2ccnc2)cc1OC	inconclusive: 20 µM [activator, partial curve, poor fit]	
Nc1c(NCCc2ccccc2)c2ccccc2oc1=O	inconclusive: 4.47 µM [activator, single point]	
COc1ccccc1Oc1ccc(N2CC(C(=O)OCC(=O)c3ccccc3)CC2=O)cc1 (stereo not drawn)	inconclusive: 5.62 µM [activator, partial curve]	
COc1cccc(OCC(O)CN2CCN(C)CC2)c1 (stereo not drawn)	inconclusive: 10 µM [activator, single point]	
Oc1ccc(N=Nc2ccccc2)o1	inactive	
O=C(NNS(=O)(=O)c1ccccc1)c1cccc(F)c1	inconclusive: 0.501 µM [activator, full curve, poor fit]	
Cc1ccc(/C=N/Nc2cc(C)nc(NCc3ccccc3)n2)cc1	inactive	
CCOC(=O)C1=C(c2ccccc2)NC(SCC(=O)Nc2cccc(C)c2)=C(C#N)C1c1ccco1 (stereo not drawn)	inconclusive: 28.2 µM [activator, single point]	
COc1ccc(-c2oc3ccc(-c4cc(OC)c(OC)c(OC)c4)cc3c2-c2ccc(OC)cc2)cc1	inactive	
O=C1C2CCCN2C(=S)N1C1CCCCC1 (stereo not drawn)	inactive	
CC(=O)Nc1cc2c3c(c1)CC(=O)N3CCC2	inactive	

2 entries drawn at random from those above, as already listed:
Structure (SMILES)	Potency	activation
CN(Cc1ccccc1)C(=O)COC(=O)c1ccc2ccccc2n1	inconclusive: 5.62 µM [activator, partial curve, poor fit]	
COCCN(C(=O)c1cc(-c2ccc(F)cc2)nc2ccccc12)c1c(N)n(CC(C)C)c(=O)[nH]c1=O	inconclusive: 12.6 µM [activator, single point]	

(cont.)

Structure (SMILES)	Potency	activation
Cc1cccc(-c2nc3ccccc3c(=O)n2NC(=O)/C=C/c2ccc([N+](=O)[O-])cc2)c1	inconclusive: 4.47 µM [activator, single point]	
CCc1nnc(NC(=O)c2ccc(S(=O)(=O)NC3CCCCC3)cc2)s1	inconclusive: 1 µM [activator, full curve, poor fit]	
CC(C)C[C@H](NC(=O)c1nc[nH]c1C(=O)N1CCN(C(=O)OC(C)(C)C)CC1)C(=O)OC(C)(C)C	inactive	
COc1ccc(C(=O)Nc2nc3ccc(OC)cc3s2)cc1	inconclusive: 3.16 µM [activator, partial curve, poor fit]	
CCOC(=O)C(Cc1c(F)cccc1Cl)c1ccnc2nc(N)nn12 (stereo not drawn)	inconclusive: 3.16 µM [activator, single point]	
O=C(Nc1ccc(Cl)c(Cl)c1)Nc1ccccn1	inactive	
O=C1CNC(c2ccccc2)C(c2ccccc2)N1 (stereo not drawn)	inactive	
Cn1nc(-c2ccc(Cl)cc2)c2cc(C(=O)N3CCN(c4ccccc4)CC3)sc21	inactive	
CC[C@H](C)[C@H](NC(N)=O)C(=O)NCCc1ccc(Cl)cc1	inconclusive: 28.2 µM [activator, single point]	
Cc1cccc(C)c1NC(=O)CSc1nnnn1C	inconclusive: 2.82 µM [activator, single point]	
O=C(C[n+]1ccccc1)Nc1ccccc1[N+](=O)[O-]	inconclusive: 5.01 µM [activator, single point]	
O=C(CC1SC(=O)N(c2ccccc2)C1=O)Nc1ccc(Cl)cc1 (stereo not drawn)	inactive	
CC(SC1=NCCS1)C(=O)Nc1nnc(-c2ccc(Br)cc2)s1 (stereo not drawn)	inactive	
O=C(N/N=C/c1ccsc1)c1c[nH]c2ccccc12	inconclusive: 20 µM [activator, single point]	
CCOC(=O)c1ccc(-c2c(-c3ccccc3OC)sc3cc4c(cc23)OCO4)cc1F	inactive	
CCc1ccccc1N(CC(=O)NC(C)(C)C)C(=O)CCC(=O)Nc1ccccn1	inconclusive: 10 µM [activator, single point]	
Clc1cccc(N2CCN(c3nnnn3-c3ccccc3)CC2)c1	inconclusive: 2.51 µM [activator, full curve, poor fit]	
COc1cccc2cc(C(=O)N3CCc4ccccc4C3)c(=O)oc12	inconclusive: 10 µM [activator, partial curve, poor fit]	
c1ccc(-c2ncnc3cc4n(c23)CCC4)cc1	inactive	
Cc1nn(C)c(C)c1CCC(=O)N1CCCC(N2CCN(c3ccc(F)cc3)CC2)C1 (stereo not drawn)	inconclusive: 2.82 µM [activator, single point]	
COCCN(C(=O)COC(=O)/C(=C/c1ccccc1)NC(C)=O)c1c(N)n(Cc2ccccc2)c(=O)[nH]c1=O	inconclusive: 14.1 µM [activator, single point]	
Cc1nn(-c2ccccc2)c(C)c1/C=C/C(=O)OCC(=O)Nc1ncc(C(F)(F)F)cc1Cl	inconclusive: 2.82 µM [activator, single point]	
Cc1nnc(SCC(=O)Nc2ccc(O)cc2)c2ccccc12	inconclusive: 4.47 µM [activator, partial curve, poor fit]	
C=CCSc1nnc(C)c(/C=C/Nc2ccc(Cl)cc2)n1	inconclusive: 10 µM [activator, partial curve, poor fit]	
Cc1nc2c(C(F)(F)F)cccc2c2c1CCS2	inconclusive: 0.501 µM [activator, full curve, poor fit]	

Structure (SMILES)	Potency	activation
CCCC(C(=O)O)n1c(O)c(C=C2N=c3ccccc3=N2)sc1=S (stereo not drawn)	inconclusive: 11.2 µM [activator, partial curve, poor fit]	
CC(=O)NC(c1ccc2ccccc2c1)c1ccc2cccnc2c1O (stereo not drawn)	inactive	
O=C(Nc1ccccc1Cl)C1CCCN1C(=O)OCc1ccccc1 (stereo not drawn)	inconclusive: 10 µM [activator, partial curve, poor fit]	
CCOC(=O)CC(NC(=O)CCS(=O)(=O)c1ccc2c(c1)n(C)c(=O)c(=O)n2C)c1ccc(C)cc1 (stereo not drawn)	inconclusive: 3.55 µM [activator, single point]	
COc1ccccc1NC(=O)c1csc2c1CCC(C)C2 (stereo not drawn)	inconclusive: 28.2 µM [activator, single point]	
Oc1ccc(Nc2ncnc3ccccc23)cc1	inactive	
CCn1c(SCC(=O)Nc2cccc(NC(C)=O)c2)nnc1-c1ccco1	inconclusive: 5.01 µM [activator, single point]	
Cc1ccc(C2CC(=O)C=C(Nc3ccc(Cl)cc3)C2)cc1 (stereo not drawn)	inconclusive: 11.2 µM [activator, partial curve, poor fit]	
CCN(CC)c1ccc(C(=O)NNC(=O)CCNC(=O)c2ccccc2)cc1	inactive	
O=C(COC(=O)c1cccnc1Cl)NCCC1=CCCCC1	inconclusive: 22.4 µM [activator, single point]	
CCNC(=S)Nc1cc(-c2ccc(Cl)cc2)[nH]n1	inconclusive: 28.2 µM [activator, single point]	
CCc1c(C)nc(SCC(=O)N2CCCCC2)[nH]c1=O		inconclusive: 59.8% [activator]
O=C(/C=C/c1ccccc1)Nc1ccc(Cl)cn1	inactive	
O=S(=O)(Nc1ccccc1Cl)c1cccc2nsnc12	inconclusive: 2.82 µM [activator, single point]	
COc1ccc(NC(=O)CC(C)CC(=O)NCc2ccccc2)c(OC)c1 (stereo not drawn)	inconclusive: 8.91 µM [activator, single point]	
Cc1ccc2c(nc3s/c(=C/c4cccs4)c(=O)n32)c1C	inconclusive: 0.316 µM [activator, full curve, poor fit]	
Cc1csc(NC(=O)c2ccc3c(c2)OCO3)n1	inactive	
Cc1nc(SCC(=O)Nc2c(C)n(C)n(-c3ccccc3)c2=O)c2cnn(-c3ccccc3)c2n1	inconclusive: 5.01 µM [activator, single point]	
CS(=O)(=O)N(CC(=O)N1CCCCCC1)c1ccc(Cl)cc1	inconclusive: 2.82 µM [activator, single point]	
CNC(=S)N1CCC(NC(=O)C(Cc2ccc(F)cc2)NC(C)=O)CC1 (stereo not drawn)	active: 3.16 µM	
CCOc1ccc(S(=O)(=O)N2CCOCC2)cc1NC(=O)C1CSC2(C)CCC(=O)N12 (stereo not drawn)	inactive	
CCOC(=O)c1c(NC(=O)C2CCCN2S(=O)(=O)c2cccc3nsnc23)sc(C)c1C (stereo not drawn)	inconclusive: 22.4 µM [activator, single point]	
CNC(=O)c1[nH]cnc1C(=O)Nc1ccccc1C		inconclusive: -47.6% [activator]

Record cards, from the list above.
Cc1csc(NC(=O)c2ccc3c(c2)OCO3)n1 as listed: Potency: inactive
CCOC(=O)CC(NC(=O)CCS(=O)(=O)c1ccc2c(c1)n(C)c(=O)c(=O)n2C)c1ccc(C)cc1 (stereo not drawn) as listed: Potency: inconclusive: 3.55 µM [activator, single point]
O=C(/C=C/c1ccccc1)Nc1ccc(Cl)cn1 as listed: Potency: inactive
